Measured values as given in PubChem BioAssay AID2685 (National Center for Advancing Translational Sciences (NCATS), 2010).
This is one part of the list. The main result of the screen is listed elsewhere. These columns were measured beside it and carry no call. Compounds called inactive in the main read-out are mostly missing here. Words in brackets tell the shape of the fitted curve; partial curves, single points and poor fits give uncertain potencies.

Experiment: qHTS Assay for Lipid Storage Modulators in Drosophila S3 Cells;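 on cell number change: cells counted by Cell Tracker Red CMTPX staining in the red channel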
Details: BODIPY lipid droplet fluorescence, 18-24 h; for cell number change: measured here: cell count max response, cells fed with added oleic acid
Procedure, shortened: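 Drosophila S3 cells loaded with oleic acid (400 uM, as added) and compounds at several concentrations; lipid droplets imaged by 488-nm laser-scanning cytometry, 500–530 nm intensity and object ratio to cell channel. Percent activity normalized to 20 uM Triacsin C.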

[1] = measured here: cell number channel AC50, cells fed with added oleic acid
[2] = measured here: lipid fluorescence (Fed channel) AC50, cells fed with added oleic acid

SMILES	cell number change	AC50 [1]	AC50 [2]
COc1ccc(S(=O)(=O)N2CCOC2CNC(=O)C(=O)NCCN2CCOCC2)cc1 (centres undefined)	-4.17%	0.058 µM [falling, full curve, poor fit]	6.51 µM [falling, single point]
C=CCNC(=O)COC(=O)COc1ccc(Cl)cc1	-47.5%	29.1 µM [falling, single point]	32.6 µM [falling, partial curve, poor fit]
CCOc1ccc(S(=O)(=O)n2nc(C)cc2C)c2ccccc12			2.59 µM [rising, partial curve]
Cn1nc(Oc2nc(N3CCOCC3)nc(N3CCOCC3)n2)ccc1=O	-14%	0.92 µM [falling, full curve, poor fit]	1.16 µM [falling, partial curve]
O=C(O)c1cc(S(=O)(=O)O)ccc1O	-50.5%	23.1 µM [falling, single point]	29.1 µM [falling, single point]
O=C(NNC(=O)c1ccc(F)cc1F)c1ccc2c(c1)OCO2			0.731 µM [falling, single point]
Cc1cc(NS(=O)(=O)c2ccc(NC(=O)CSc3nnc(-c4ccco4)n3Cc3ccco3)cc2)nc(C)n1	-66.7%	29.1 µM [falling, single point]	1.84 µM [falling, partial curve, poor fit]
CCOc1ccc(S(=O)(=O)N2CCCCCC2)cc1	78.4%	23.1 µM [rising, single point]	
CCOC(=O)c1ccccc1NS(=O)(=O)c1ccc(OCC)cc1		4.61 µM [rising, single point]	6.51 µM [rising, single point]
O=C(c1ccco1)N1CCN(C(=O)c2ccc(CS(=O)c3cccc(Cl)c3)o2)CC1 (centres undefined)	-17.4%		29.1 µM [rising, single point]
COc1cccc(-c2nc(CSCC(=O)NCC3CCCO3)c(C)o2)c1 (centres undefined)	13.1%		14.6 µM [rising, single point]
CCOc1cc2[nH]c(=O)n(CCCCC(=O)NCc3ccco3)c(=O)c2cc1OCC	-24.5%		9.2 µM [falling, partial curve]
O=C1NCC(O)=C1C=NCCCO	0.752%		4.61 µM [falling, partial curve]
Oc1cc2c(cc1CN1CCN(c3ncccn3)CC1)OCO2	-6.65%		
COC(=O)Cc1csc(Nc2ccccc2)n1	6.59%		
c1ccc2c(c1)nc(Nc1ccc(N3CCCCC3)cc1)c1nncn12	-45.6%	32.6 µM [falling, single point]	29.1 µM [falling, single point]

2 compounds from above, showing only cell number change and AC50 [1]:
SMILES | cell number change | AC50 [1]
COC(=O)Cc1csc(Nc2ccccc2)n1 | 6.59% | 
c1ccc2c(c1)nc(Nc1ccc(N3CCCCC3)cc1)c1nncn12 | -45.6% | 32.6 µM [falling, single point]
